Results are given in words; binding and its absence hold for the method and conditions named. In cells and extracts the contact can be indirect. Here binding means that the protein was enriched with, or labelled near, the bait; the list need not be complete.
Biological target: Recombinant His-tagged P8 protein (Lactobacillus rhamnosus KCTC 12202BP)
Assay: affinity purification with mass spectrometry; His-tagged P8 held on Ni2+-NTA resin, incubated with soluble DLD-1 lysate for 24 h at 4 °C, washed with PBS, eluted with 20 mM HEPES pH 7.5, 150 mM NaCl, 300 mM imidazole; SDS-PAGE, in-gel trypsin digestion, LC-MS/MS; overlap of three independent experiments; resin without P8 as negative control; only the target purified

Row | Binder | binding
1 | Sentrin-specific protease 2 (protein, UniProt Q9HC62 1-589) MYRWLVRILGTIFRFCDRSVPPARALLKRRRSDSTLFSTVDTDEIPAKRPRLDCFIHQVKNSLYNAASLFGFPFQLTTKPMVTSACNGTRNVAPSGEVFSNSSSCELTGSGSWNNMLKLGNKSPNGISDYPKIRVTVTRDQPRRVLPSFGFTLNSEGCNRRPGGRRHSKGNPESSLMWKPQEQAVTEMISEESGKGLRRPHCTVEEGVQKEEREKYRKLLERLKESGHGNSVCPVTSNYHSSQRSQMDTLKTKGWGEEQNHGVKTTQFVPKQYRLVETRGPLCSLRSEKRCSKGKITDTETMVGIRFENESRRGYQLEPDLSEEVSARLRLGSGSNGLLRRKVSIIETKEKNCSGKERDRRTDDLLELTEDMEKEISNALGHGPQDEILSSAFKLRITRGDIQTLKNYHWLNDEVINFYMNLLVERNKKQGYPALHVFSTFFYPKLKSGGYQAVKRWTKGVNLFEQEIILVPIHRKVHWSLVVIDLRKKCLKYLDSMGQKGHRICEILLQYLQDESKTKRNSDLNLLEWTHHSMKPHEIPQQLNGSDCGMFTCKYADYISRDKPITFTQHQMPLFRKKMVWEILHQQLL | binds
2 | F-box only protein 21 (protein, UniProt O94952 1-628) MAAAAVDSAMEVVPALAEEAAPEVAGLSCLVNLPGEVLEYILCCGSLTAADIGRVSSTCRRLRELCQSSGKVWKEQFRVRWPSLMKHYSPTDYVNWLEEYKVRQKAGLEARKIVASFSKRFFSEHVPCNGFSDIENLEGPEIFFEDELVCILNMEGRKALTWKYYAKKILYYLRQQKILNNLKAFLQQPDDYESYLEGAVYIDQYCNPLSDISLKDIQAQIDSIVELVCKTLRGINSRHPSLAFKAGESSMIMEIELQSQVLDAMNYVLYDQLKFKGNRMDYYNALNLYMHQVLIRRTGIPISMSLLYLTIARQLGVPLEPVNFPSHFLLRWCQGAEGATLDIFDYIYIDAFGKGKQLTVKECEYLIGQHVTAALYGVVNVKKVLQRMVGNLLSLGKREGIDQSYQLLRDSLDLYLAMYPDQVQLLLLQARLYFHLGIWPEKSFCLVLKVLDILQHIQTLDPGQHGAVGYLVQHTLEHIERKKEEVGVEVKLRSDEKHRDVCYSIGLIMKHKRYGYNCVIYGWDPTCMMGHEWIRNMNVHSLPHGHHQPFYNVLVEDGSCRYAAQENLEYNVEPQEISHPDVGRYFSEFTGTHYIPNAELEIRYPEDLEFVYETVQNIYSAKKENIDE | binds

Source: PMC12472984
